# Experimental data reported in PubChem BioAssay AID330 (DTP/NCI, 2004).
# The list is a part of this screen's results and no random one: it is rich in T/C values a quarter to a half above the control, in often repeated tests (any T/C) and in doses without a T/C. Further doses and runs are listed elsewhere. T/C gives the treated animals as a percentage of the vehicle group. Some entries give survivors of the animals treated and no T/C: the source files T/C as zero there, which appears to mark a toxic dose or a test without result, not a measured value. Some survivor counts are full or nearly so, which does not show that the dose was tolerated: the source hardly ever lists a survival T/C far under the control, and the zero likely stands for such cases as well. Survivors were counted at the toxicity check, usually on the fifth day, unless a day is given; later deaths do not show. Schedule codes are those of the source, read here as Q, the interval in days (D) or hours (H), X, the number of doses. Some entries were tested several times; the results are listed from low to high. Additions like (4×) count equal records among those shown. Some structures stand for samples that the source files as different forms (salt, stereo form or complex); doses refer to the form tested. For survival time, this PubChem deposit counts one and a half times the control or more as active, and values a quarter to a half above the control carry no call in these data; other NCI protocols may use other cut-offs. Some T/C values carry the count of animals alive at the toxicity check (mostly the fifth day); without a count, all were alive then.
# Tested on: P388 leukemia ip, CD2F1 mice, survival T/C
# Assay: NCI In Vivo Anticancer Drug Screen. Data for tumor model P388 Leukemia (intraperitoneal) in CD2F1 (CDF1) mice
# Details: T/C endpoint: median survival time, higher T/C = longer survival
# [1] = dose: 50.0 mg/kg/injection, schedule: Q01DX009 (ip), vehicle: saline with Tween-80
# [2] = dose: 100.0 mg/kg/injection, schedule: Q01DX009 (ip), vehicle: saline with Tween-80
# [3] = dose: 240.0 mg/kg/injection, schedule: Q01DX005 (ip), vehicle: saline with Tween-80
# [4] = dose: 240.0 mg/kg/injection, schedule: Q01DX005 (ip), vehicle: saline
# [5] = dose: 400.0 mg/kg/injection, schedule: Q01DX009 (ip), vehicle: saline with Tween-80
# [6] = dose: 400.0 mg/kg/injection, schedule: Q01DX001 (ip), vehicle: saline with Tween-80
# [7] = dose: 100.0 mg/kg/injection, schedule: Q01DX001 (ip), vehicle: saline with Tween-80
# [8] = dose: 200.0 mg/kg/injection, schedule: Q04DX003 (ip), vehicle: saline
compound,measurement,setting,value
O=C1NC2C(=CC(O)C(O)C2O)c2cc3c(cc21)OCO3 (stereo unspecified),T/C,"dose: 25.0 mg/kg/injection, schedule: Q01DX009 (ip), vehicle: saline + alcohol",128 % of control
same,survivor count,"dose: 50.0 mg/kg/injection, schedule: Q01DX009 (ip), vehicle: saline + alcohol",2 of 4 and 5 of 6
same,survivor count,"dose: 100.0 mg/kg/injection, schedule: Q01DX009 (ip), vehicle: saline + alcohol",0 of 4
CC(C)NC(=O)OCc1c(COC(=O)NC(C)C)c(-c2ccc(Cl)c(Cl)c2)n2c1CS(=O)(=O)C2,survivor count,"dose: 25.0 mg/kg/injection, schedule: Q01DX005 (ip), vehicle: saline with Tween-80",6 of 6
same,survivor count,"dose: 50.0 mg/kg/injection, schedule: Q01DX005 (ip), vehicle: saline with Tween-80",6 of 6
same,survivor count,"dose: 100.0 mg/kg/injection, schedule: Q01DX005 (ip), vehicle: saline with Tween-80",6 of 6
S=C1SCN(Cc2ccco2)CN1Cc1ccco1,survivor count,"dose: 200.0 mg/kg/injection, schedule: Q01DX009 (ip), vehicle: saline with Tween-80",4 of 6
CNc1ccc(Nc2c3ccccc3nc3ccccc23)cc1,T/C,"dose: 25.0 mg/kg/injection, schedule: Q04DX002 (ip), vehicle: distilled water + Tween-80",126 % of control
same,T/C,"dose: 50.0 mg/kg/injection, schedule: Q04DX002 (ip), vehicle: distilled water + Tween-80",136 % of control
same,survivor count,"dose: 200.0 mg/kg/injection, schedule: Q04DX002 (ip), vehicle: distilled water + Tween-80",0 of 6 and 2 of 6
same,survivor count,"dose: 400.0 mg/kg/injection, schedule: Q04DX002 (ip), vehicle: distilled water + Tween-80",0 of 6
CC(=O)OC1C=CC2OC2(COC(=O)c2ccccc2)C1OC(C)=O (stereo unspecified),survivor count,"dose: 1.25 mg/kg/injection, schedule: Q01DX009 (ip), vehicle: Klucel (hydroxypropylcellulose) (HPC)",6 of 6
C=C1C(=O)C23C(O)C1CCC2C12COC3(O)C(O)C1C(C)(C)CCC2OC(C)=O (stereo unspecified),survivor count,"dose: 40.0 mg/kg/injection, schedule: Q01DX009 (ip), vehicle: saline with Tween-80",5 of 6
same,survivor count,[1],2 of 3
same,survivor count,"dose: 80.0 mg/kg/injection, schedule: Q01DX009 (ip), vehicle: saline with Tween-80",0 of 6
same,survivor count,[2],0 of 3
NC(CC(=O)NO)C(=O)O (stereo unspecified),T/C,"dose: 800.0 mg/kg/injection, schedule: Q01DX009 (ip), vehicle: saline",145 % of control
C[N+](C)(C)CCc1ccc2ccccc2c1,survivor count,"dose: 200.0 mg/kg/injection, schedule: Q04DX002 (ip), vehicle: saline + alcohol",1 of 6
same,survivor count,"dose: 400.0 mg/kg/injection, schedule: Q04DX002 (ip), vehicle: saline + alcohol",0 of 6
CC1=NN(c2ccccc2)C(=O)/C1=C(\[O-])c1ccccc1.CC1=NN(c2ccccc2)C(=O)/C1=C(\[O-])c1ccccc1.[Co+2],survivor count,"dose: 120.0 mg/kg/injection, schedule: Q01DX005 (ip), vehicle: saline with Tween-80",3 of 6
same,survivor count,[3],0 of 6
Cc1ccc(/C=C/C(=O)C(C)CN(C)C)cc1 (stereo unspecified),survivor count,[4],1 of 6
same,survivor count,"dose: 480.0 mg/kg/injection, schedule: Q01DX005 (ip), vehicle: saline",0 of 6
same,survivor count,"dose: 960.0 mg/kg/injection, schedule: Q01DX005 (ip), vehicle: saline",0 of 6
Nc1nc(=O)[nH]s1,survivor count,"dose: 12.5 mg/kg/injection, schedule: Q01DX009 (ip), vehicle: saline with Tween-80",6 of 6
same,T/C,"dose: 25.0 mg/kg/injection, schedule: Q01DX009 (ip), vehicle: saline with Tween-80","86, 87, 88, 101 % of control"
same,T/C,[1],89 [5 of 6 alive] and 125 % of control
same,survivor count,[1],3 of 6 (2×)
same,survivor count,[2],2 of 6 and 3 of 6
N#Cc1ccc[n+](Cc2c(Cl)cccc2Cl)c1,T/C,"dose: 50.0 mg/kg/injection, schedule: Q01DX009 (ip), vehicle: saline",127 % of control
same,survivor count,"dose: 100.0 mg/kg/injection, schedule: Q01DX009 (ip), vehicle: saline",2 of 6 and 3 of 6
same,survivor count,"dose: 200.0 mg/kg/injection, schedule: Q01DX009 (ip), vehicle: saline",0 of 6
C=C(CN(C)C)C(=O)c1ccccc1,survivor count,"dose: 7.5 mg/kg/injection, schedule: Q01DX005 (ip), vehicle: saline",1 of 6 and 4 of 6
same,survivor count,"dose: 10.0 mg/kg/injection, schedule: Q01DX005 (ip), vehicle: saline",1 of 6
same,survivor count,"dose: 15.0 mg/kg/injection, schedule: Q01DX005 (ip), vehicle: saline",0 of 6
same,survivor count,"dose: 20.0 mg/kg/injection, schedule: Q01DX005 (ip), vehicle: saline",0 of 6
same,survivor count,"dose: 30.0 mg/kg/injection, schedule: Q01DX005 (ip), vehicle: saline",0 of 6
same,survivor count,"dose: 60.0 mg/kg/injection, schedule: Q01DX005 (ip), vehicle: saline",0 of 6
same,survivor count,"dose: 120.0 mg/kg/injection, schedule: Q01DX005 (ip), vehicle: saline",0 of 6
same,survivor count,[4],0 of 6
CCOC(=O)N1CCN(CCCCCOc2ccc(CC(C)(C)C)cc2Cl)CC1,survivor count,[5],2 of 6
CC1=NNB(O)c2c1sc(Br)c2Br,survivor count,[6],3 of 6
CC(C(=O)NC(=O)O)S(=O)(=O)O (stereo unspecified),survivor count,"dose: 50.0 mg/kg/injection, schedule: Q01DX001 (ip), vehicle: saline with Tween-80",3 of 6
same,survivor count,[7],1 of 6
same,survivor count,"dose: 200.0 mg/kg/injection, schedule: Q01DX001 (ip), vehicle: saline with Tween-80",0 of 6
same,survivor count,[6],0 of 6
O=C1C(C(=NC2CCCCC2)c2ccccc2)=C(O)c2ccccc21,survivor count,"dose: 400.0 mg/kg/injection, schedule: Q04DX002 (ip), vehicle: saline with Tween-80",2 of 6
O=C(O)CCCNC1=CC(=O)c2ccccc2C1=O,survivor count,"dose: 200.0 mg/kg/injection, schedule: Q04DX003 (ip), vehicle: saline with Tween-80",3 of 6
same,survivor count,"dose: 400.0 mg/kg/injection, schedule: Q04DX003 (ip), vehicle: saline with Tween-80",0 of 6
COC(=O)c1c(C(=O)OC)c2ccc3ccccc3n2c1-c1ccccc1,survivor count,[7],6 of 6
Oc1ccc(O)c(Cl)c1Cl,survivor count,[8],3 of 6
O=C(Nc1ccc(NC(=O)Nc2cccc(C3=NCCCN3)c2)cc1)Nc1ccc(C2=NCCCN2)cc1,T/C,"dose: 5.0 mg/kg/injection, schedule: Q01DX009 (ip), vehicle: saline with Tween-80",131 % of control
same,T/C,"dose: 6.6 mg/kg/injection, schedule: Q01DX009 (ip), vehicle: saline with Tween-80",136 % of control
same,T/C,"dose: 10.0 mg/kg/injection, schedule: Q01DX009 (ip), vehicle: saline with Tween-80",136 and 140 % of control
same,T/C,"dose: 15.0 mg/kg/injection, schedule: Q01DX009 (ip), vehicle: saline with Tween-80",145 % of control
same,survivor count,"dose: 20.0 mg/kg/injection, schedule: Q04DX003 (ip), vehicle: saline with Tween-80",1 of 6
same,survivor count,"dose: 100.0 mg/kg/injection, schedule: Q04DX003 (ip), vehicle: saline",0 of 6
same,survivor count,[8],0 of 6
same,survivor count,"dose: 400.0 mg/kg/injection, schedule: Q04DX003 (ip), vehicle: saline",0 of 6
Cc1ccc(C(=O)Nc2c(C)cccc2C)cc1,survivor count,[3],6 of 6
C[C@@H]1CC2=CC(=O)CC[C@]2(C)[C@H]2CC[C@]3(C)[C@@H](O)CC[C@H]3[C@H]12,survivor count,[5],6 of 6
